Experimental data reported in paper PMC12743511, “HSD17β11 regulates PLIN5-ATGL mediated lipolysis, but not hepatic lipid metabolism in mice” (Journal of Lipid Research, 2025).
These are yes or no findings as the source states them, for the method shown. Binding seen in cells or lysates may run through a third protein. Some results given as binding are weak or reduced against the parent protein; the word gives no strength. Tags and fused reporters may be left off the sequences shown.

Target: T1, ATGL-CFP (adipose triglyceride lipase fused to CFP) (UniProt Q96AD5)
T1 sequence: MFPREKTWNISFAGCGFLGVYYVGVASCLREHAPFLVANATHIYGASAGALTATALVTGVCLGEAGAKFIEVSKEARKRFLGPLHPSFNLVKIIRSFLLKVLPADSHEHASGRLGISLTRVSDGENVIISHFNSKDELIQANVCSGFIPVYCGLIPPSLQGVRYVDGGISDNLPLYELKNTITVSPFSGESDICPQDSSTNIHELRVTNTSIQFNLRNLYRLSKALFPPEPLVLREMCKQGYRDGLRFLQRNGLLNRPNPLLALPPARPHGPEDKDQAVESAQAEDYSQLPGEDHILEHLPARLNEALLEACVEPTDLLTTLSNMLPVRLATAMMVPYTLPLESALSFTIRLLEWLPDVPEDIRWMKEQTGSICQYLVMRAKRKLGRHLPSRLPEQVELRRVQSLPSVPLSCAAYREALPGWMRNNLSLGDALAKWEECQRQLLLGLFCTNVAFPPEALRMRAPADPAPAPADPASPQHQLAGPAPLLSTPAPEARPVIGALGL
Assay: FRET or BRET; FLIM-FRET with phasor analysis in live transfected cells, CFP donor and YFP acceptor, 37°C, 5% CO2; basal and forskolin (PKA) stimulated; ATGL-CFP with PLIN5-YFP in WT and HSD^KO cells; read-out FRET ratio (pixels with FRET / pixels without)

B1: PLIN5-YFP (perilipin 5 fused to YFP) (protein, UniProt Q00G26 1-463)
chain: MSEEEAAQIPRSSVWEQDQQNVVQRVVALPLVRATCTAVCDVYSAAKDRHPLLGSACRLAENCVCGLTTRALDHAQPLLEHLQPQLATMNSLACRGLDKLEEKLPFLQQPSETVVTSAKDVVASSVTGVVDLARRGRRWSVELKRSVSHAVDVVLEKSEELVDHFLPMTEEELAALAAEAEGPEVGSVEDQRRQQGYFVRLGSLSARIRHLAYEHSVGKLRQSKHRAQDTLAQLQETLELIDHMQCGVTPTAPACPGKVHELWGEWGQRPPESRRRSQAELETLVLSRSLTQELQGTVEALESSVRGLPAGAQEKVAEVRRSVDALQTAFADARCFRDVPAAALAEGRGRVAHAHACVDELLELVVQAVPLPWLVGPFAPILVERPEPLPDLADLVDEVIGGPDPRWAHLDWPAQQRAWEAEHRDGSGNGDGDRMGVAGDICEQEPETPSCPVKHTLMPELDF
binding: binds
